Test results as given in the supplement of paper PMC12067093, “Discovery and optimisation of a covalent ligand for TRIM25 and its application to targeted protein ubiquitination” (Chemical Science, 2025).
This is one part of the list.

Amino acid sequences for entries named in this document (tags omitted). A change or cut given only in a name is not applied to a line headed by its entry.
UniProt Q8N584: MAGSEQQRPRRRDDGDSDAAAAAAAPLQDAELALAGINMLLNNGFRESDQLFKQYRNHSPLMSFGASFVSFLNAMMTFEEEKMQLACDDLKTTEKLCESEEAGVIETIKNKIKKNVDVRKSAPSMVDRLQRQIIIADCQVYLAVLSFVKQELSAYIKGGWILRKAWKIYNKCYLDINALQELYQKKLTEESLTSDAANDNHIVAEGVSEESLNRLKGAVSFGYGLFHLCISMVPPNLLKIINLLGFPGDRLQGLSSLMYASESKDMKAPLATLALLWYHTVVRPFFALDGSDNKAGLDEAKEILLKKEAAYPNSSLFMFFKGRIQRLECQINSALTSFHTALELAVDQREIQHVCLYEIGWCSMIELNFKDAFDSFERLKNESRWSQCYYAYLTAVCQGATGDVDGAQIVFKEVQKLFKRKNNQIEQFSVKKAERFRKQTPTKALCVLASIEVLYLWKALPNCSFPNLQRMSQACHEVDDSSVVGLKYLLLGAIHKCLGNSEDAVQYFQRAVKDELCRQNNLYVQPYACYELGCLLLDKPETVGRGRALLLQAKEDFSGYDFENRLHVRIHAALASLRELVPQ
UniProt Q5TAX3: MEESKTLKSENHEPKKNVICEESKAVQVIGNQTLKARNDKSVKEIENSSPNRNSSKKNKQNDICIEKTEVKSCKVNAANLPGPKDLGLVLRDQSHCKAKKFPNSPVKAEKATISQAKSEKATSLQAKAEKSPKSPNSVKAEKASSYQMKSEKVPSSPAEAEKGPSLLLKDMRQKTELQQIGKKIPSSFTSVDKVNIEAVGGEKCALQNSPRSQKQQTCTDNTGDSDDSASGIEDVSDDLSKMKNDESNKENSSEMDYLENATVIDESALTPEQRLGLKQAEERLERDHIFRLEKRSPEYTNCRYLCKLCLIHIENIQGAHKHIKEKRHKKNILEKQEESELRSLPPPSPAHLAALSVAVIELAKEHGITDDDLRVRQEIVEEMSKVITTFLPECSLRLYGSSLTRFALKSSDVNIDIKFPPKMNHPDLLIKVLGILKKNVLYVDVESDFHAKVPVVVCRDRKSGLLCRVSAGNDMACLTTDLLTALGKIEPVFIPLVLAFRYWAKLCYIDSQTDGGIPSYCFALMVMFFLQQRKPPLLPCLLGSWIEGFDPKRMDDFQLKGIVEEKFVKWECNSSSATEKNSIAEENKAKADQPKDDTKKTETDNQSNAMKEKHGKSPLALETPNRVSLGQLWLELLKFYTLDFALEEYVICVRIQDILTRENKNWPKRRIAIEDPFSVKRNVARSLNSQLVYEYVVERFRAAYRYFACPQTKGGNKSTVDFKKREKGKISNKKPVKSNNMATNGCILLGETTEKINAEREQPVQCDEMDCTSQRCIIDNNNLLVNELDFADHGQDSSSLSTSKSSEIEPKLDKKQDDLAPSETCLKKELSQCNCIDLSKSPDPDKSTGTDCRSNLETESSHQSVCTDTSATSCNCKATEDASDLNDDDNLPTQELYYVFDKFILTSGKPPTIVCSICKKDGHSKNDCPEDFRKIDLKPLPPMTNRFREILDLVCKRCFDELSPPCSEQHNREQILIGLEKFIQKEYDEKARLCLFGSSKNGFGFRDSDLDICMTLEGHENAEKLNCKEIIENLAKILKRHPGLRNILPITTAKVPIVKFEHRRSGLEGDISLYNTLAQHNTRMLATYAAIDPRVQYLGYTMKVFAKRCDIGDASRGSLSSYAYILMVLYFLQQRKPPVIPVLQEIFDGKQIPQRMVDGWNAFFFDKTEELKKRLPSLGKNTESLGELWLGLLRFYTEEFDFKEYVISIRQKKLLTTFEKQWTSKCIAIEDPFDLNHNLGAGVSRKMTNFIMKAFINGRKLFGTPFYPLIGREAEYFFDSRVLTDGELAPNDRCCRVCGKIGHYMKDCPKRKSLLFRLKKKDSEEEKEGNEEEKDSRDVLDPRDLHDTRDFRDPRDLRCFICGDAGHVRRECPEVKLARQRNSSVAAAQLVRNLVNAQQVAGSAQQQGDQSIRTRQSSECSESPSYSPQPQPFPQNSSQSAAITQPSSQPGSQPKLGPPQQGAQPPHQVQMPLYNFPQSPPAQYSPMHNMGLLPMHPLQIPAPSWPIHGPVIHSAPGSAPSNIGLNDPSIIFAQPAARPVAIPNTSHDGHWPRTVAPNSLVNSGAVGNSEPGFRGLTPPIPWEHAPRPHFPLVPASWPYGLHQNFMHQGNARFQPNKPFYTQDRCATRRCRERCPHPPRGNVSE
UniProt Q96AE7: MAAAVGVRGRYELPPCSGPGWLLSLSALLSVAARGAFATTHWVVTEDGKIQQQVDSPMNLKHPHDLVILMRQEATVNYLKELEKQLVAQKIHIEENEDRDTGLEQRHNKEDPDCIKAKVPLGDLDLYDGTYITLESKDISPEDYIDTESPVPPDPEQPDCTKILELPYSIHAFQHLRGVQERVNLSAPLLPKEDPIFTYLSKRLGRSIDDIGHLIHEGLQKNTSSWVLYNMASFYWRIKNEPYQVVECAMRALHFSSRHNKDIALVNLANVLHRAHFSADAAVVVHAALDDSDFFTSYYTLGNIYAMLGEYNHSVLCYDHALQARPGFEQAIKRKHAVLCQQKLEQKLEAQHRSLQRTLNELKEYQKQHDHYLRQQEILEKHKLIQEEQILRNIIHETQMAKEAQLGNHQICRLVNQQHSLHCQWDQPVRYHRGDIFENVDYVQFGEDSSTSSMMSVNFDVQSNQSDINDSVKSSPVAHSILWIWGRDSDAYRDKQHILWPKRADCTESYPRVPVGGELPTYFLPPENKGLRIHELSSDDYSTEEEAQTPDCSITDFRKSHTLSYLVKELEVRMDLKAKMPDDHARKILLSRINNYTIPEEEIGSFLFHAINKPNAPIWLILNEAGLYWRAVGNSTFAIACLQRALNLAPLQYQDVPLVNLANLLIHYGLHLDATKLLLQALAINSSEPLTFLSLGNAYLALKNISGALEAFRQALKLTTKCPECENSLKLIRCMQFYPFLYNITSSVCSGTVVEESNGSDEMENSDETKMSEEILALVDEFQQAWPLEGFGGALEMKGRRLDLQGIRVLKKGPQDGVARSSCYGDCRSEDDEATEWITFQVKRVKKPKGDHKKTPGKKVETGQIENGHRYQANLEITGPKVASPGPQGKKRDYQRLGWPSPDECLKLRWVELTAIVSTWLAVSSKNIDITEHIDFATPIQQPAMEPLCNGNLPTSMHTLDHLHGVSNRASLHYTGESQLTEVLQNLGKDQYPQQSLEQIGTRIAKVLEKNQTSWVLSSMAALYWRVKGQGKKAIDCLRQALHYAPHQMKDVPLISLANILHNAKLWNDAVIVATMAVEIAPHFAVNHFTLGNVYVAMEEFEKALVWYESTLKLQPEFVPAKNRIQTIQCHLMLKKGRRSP
UniProt P10155: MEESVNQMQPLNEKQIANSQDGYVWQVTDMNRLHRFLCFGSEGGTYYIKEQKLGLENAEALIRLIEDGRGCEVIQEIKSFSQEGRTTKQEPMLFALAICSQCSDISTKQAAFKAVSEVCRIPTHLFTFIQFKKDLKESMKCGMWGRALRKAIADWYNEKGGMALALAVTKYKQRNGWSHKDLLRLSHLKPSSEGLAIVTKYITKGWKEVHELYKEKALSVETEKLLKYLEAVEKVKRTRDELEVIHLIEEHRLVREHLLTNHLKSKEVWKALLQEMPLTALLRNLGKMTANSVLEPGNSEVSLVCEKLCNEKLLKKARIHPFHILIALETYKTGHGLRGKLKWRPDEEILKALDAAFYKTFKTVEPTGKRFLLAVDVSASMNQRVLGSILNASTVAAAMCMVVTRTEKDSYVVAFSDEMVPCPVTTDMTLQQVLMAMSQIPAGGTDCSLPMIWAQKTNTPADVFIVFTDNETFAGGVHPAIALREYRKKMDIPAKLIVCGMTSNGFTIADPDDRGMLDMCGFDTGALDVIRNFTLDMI
UniProt Q15361: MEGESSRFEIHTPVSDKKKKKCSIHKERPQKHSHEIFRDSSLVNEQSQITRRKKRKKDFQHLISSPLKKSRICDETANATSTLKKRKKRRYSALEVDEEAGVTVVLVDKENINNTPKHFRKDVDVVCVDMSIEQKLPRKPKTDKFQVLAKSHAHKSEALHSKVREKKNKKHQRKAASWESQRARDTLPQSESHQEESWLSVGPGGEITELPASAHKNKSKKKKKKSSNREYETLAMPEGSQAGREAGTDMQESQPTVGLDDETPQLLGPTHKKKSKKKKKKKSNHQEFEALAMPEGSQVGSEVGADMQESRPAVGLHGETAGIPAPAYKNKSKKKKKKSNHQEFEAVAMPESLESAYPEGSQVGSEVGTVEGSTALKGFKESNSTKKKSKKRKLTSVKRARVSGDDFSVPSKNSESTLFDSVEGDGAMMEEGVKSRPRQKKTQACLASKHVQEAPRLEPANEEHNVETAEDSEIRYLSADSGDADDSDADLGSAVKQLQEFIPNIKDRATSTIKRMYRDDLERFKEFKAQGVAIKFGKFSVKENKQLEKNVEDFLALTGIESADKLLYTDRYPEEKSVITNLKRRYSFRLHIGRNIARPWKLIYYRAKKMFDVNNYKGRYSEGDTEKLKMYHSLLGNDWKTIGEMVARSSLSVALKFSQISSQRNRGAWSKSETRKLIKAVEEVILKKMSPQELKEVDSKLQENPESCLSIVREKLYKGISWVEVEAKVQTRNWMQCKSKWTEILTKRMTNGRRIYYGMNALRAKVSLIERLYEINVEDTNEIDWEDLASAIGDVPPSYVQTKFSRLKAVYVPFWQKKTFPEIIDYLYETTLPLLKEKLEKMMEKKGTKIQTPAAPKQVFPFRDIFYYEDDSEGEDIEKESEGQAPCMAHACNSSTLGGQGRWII
UniProt Q969E8: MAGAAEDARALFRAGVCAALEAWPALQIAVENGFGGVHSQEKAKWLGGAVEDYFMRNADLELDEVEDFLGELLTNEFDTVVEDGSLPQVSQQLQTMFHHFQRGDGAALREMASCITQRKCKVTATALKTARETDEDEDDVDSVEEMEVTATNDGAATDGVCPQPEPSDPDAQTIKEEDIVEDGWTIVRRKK
UniProt Q6PGP7, whole entry, looked up: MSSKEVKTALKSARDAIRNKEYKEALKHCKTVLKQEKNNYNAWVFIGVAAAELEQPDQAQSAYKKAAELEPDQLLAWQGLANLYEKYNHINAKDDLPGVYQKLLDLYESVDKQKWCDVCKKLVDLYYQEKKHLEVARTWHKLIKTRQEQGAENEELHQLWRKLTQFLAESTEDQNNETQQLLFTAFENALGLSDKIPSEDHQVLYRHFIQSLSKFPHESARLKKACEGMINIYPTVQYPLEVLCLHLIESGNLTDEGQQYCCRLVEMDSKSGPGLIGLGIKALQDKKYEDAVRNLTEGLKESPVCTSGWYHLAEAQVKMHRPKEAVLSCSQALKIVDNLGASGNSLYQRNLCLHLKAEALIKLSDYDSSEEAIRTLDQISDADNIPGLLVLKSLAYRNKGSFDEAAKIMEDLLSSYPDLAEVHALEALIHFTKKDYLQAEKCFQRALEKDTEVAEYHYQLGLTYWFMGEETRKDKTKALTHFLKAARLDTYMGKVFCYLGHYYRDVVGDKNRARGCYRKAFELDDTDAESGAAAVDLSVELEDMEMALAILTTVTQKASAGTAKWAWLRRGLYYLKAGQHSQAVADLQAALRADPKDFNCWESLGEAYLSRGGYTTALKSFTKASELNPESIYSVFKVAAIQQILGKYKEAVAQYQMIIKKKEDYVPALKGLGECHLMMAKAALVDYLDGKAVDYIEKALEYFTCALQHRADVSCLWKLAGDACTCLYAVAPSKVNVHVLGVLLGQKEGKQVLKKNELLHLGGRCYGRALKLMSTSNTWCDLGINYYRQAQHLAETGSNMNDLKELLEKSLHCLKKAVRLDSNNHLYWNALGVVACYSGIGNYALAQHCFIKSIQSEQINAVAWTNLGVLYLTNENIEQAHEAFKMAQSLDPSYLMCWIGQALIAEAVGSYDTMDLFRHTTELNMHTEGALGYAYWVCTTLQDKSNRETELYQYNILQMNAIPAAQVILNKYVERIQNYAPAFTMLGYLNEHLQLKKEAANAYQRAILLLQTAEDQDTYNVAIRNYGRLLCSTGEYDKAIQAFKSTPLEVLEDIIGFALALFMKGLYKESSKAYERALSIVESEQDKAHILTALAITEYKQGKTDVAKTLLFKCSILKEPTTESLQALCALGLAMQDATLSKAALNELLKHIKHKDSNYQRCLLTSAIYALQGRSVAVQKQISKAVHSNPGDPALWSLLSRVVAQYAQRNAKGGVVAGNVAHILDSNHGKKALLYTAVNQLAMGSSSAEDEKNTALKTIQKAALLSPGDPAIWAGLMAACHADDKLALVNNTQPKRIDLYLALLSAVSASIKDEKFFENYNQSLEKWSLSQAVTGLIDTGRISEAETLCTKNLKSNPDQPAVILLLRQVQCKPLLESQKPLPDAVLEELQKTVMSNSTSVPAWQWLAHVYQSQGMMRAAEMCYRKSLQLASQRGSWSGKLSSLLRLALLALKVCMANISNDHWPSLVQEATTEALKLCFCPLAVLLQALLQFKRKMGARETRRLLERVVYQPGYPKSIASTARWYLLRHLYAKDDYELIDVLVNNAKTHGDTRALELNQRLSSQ

What follows are targets tested with CC1Cc2ccccc2N1C(=O)C1CCCN(C1)C(=O)CCl (mixture of isomers) [TRIM25 ligand 11 (diastereomer mixture)] (assay: probe-labelled cysteine peptide fold change vs DMSO (competition) (log2 fold change); higher = less target engagement (more negative = stronger competition)). Settings: 50 µM; THP-1; incubation time: 4 h.
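Note: competitive chemoproteomic profiling in live THP-1 cells with an iodoacetamide desthiobiotin (IA-DTB) probe, comparing probe-labelled peptide intensities in compound-treated cells against DMSO-treated controls.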

Row | Target | probe-labelled cysteine peptide fold change
1 | TTC39C_Q8N584_97_LCESEEAGVIETIK (UniProt Q8N584) | -0.0786
2 | TTC28_Q96AY4_816_CYEEQLDLGQK (UniProt Q96AY4) | 0.289
3 | TUT4_Q5TAX3_309_LCLIHIENIQGAHK (UniProt Q5TAX3) | 0.245
4 | TTC17_Q96AE7_725_CPECENSLK (UniProt Q96AE7) | 0.164
5 | TUT4_Q5TAX3_966_CFDELSPPCSEQHNR (UniProt Q5TAX3) | -0.0253
6 | TUBB6_Q9BUF5_127+129_ECEHCDCLQGFQLTHSLGGGTGSGMGTLLISK (UniProt Q9BUF5) | 0.0272
7 | TROVE2_P10155_71_GCEVIQEIK (UniProt P10155) | -0.0657
8 | TRPM7_Q96QT4_1426_DQETVCSK (UniProt Q96QT4) | -0.219
9 | TUBA4A_P68366_4_MRECISVHVGQAGVQMGNACWELYCLEHGIQPDGQMPSDK (UniProt P68366) | -0.437
10 | TUBGCP3_Q96CW5_388_TLAALVDHCQGRK (UniProt Q96CW5) | -0.0586
11 | TTC17_Q96AE7_340_HAVLCQQK (UniProt Q96AE7) | 0.445
12 | TUFM_P49411_290_KGDECELLGHSK (UniProt P49411) | -0.139
13 | TTF1_Q15361_708_LQENPESCLSIVR (UniProt Q15361) | 0.0241
14 | TSR2_Q969E8_114_EMASCITQR (UniProt Q969E8) | -0.298
15 | TTC37_Q6PGP7_1162_CLLTSAIYALQGR (UniProt Q6PGP7) | -0.0818
16 | TTC17_Q96AE7_506_RADCTESYPR (UniProt Q96AE7) | 0.0813

Excerpt: entries 3–4
Row | Target | probe-labelled cysteine peptide fold change
3 | TUT4_Q5TAX3_309_LCLIHIENIQGAHK (UniProt Q5TAX3) | 0.245
4 | TTC17_Q96AE7_725_CPECENSLK (UniProt Q96AE7) | 0.164
